The assay addresses RNA Pol II ser-2 phos CTD (largest subunit with the CTD phosphorylated on ser-2, the transcriptionally competent form), as precipitated with the H5 antibody (Drosophila (endogenous in wild type embryos)) (UniProt P04052). Nature of the assay: co-IP; whole cell extract of 6-18 h wild type Drosophila embryos; performed as with 8WG16 but with H5 antibodies specific for RNA Pol II ser-2 phos; western blot. (In general: In western blotting, separated proteins are transferred to a membrane and probed.)

Protein sequences, listed by entry. Tags and fused reporters are not part of them.
UniProt P04052: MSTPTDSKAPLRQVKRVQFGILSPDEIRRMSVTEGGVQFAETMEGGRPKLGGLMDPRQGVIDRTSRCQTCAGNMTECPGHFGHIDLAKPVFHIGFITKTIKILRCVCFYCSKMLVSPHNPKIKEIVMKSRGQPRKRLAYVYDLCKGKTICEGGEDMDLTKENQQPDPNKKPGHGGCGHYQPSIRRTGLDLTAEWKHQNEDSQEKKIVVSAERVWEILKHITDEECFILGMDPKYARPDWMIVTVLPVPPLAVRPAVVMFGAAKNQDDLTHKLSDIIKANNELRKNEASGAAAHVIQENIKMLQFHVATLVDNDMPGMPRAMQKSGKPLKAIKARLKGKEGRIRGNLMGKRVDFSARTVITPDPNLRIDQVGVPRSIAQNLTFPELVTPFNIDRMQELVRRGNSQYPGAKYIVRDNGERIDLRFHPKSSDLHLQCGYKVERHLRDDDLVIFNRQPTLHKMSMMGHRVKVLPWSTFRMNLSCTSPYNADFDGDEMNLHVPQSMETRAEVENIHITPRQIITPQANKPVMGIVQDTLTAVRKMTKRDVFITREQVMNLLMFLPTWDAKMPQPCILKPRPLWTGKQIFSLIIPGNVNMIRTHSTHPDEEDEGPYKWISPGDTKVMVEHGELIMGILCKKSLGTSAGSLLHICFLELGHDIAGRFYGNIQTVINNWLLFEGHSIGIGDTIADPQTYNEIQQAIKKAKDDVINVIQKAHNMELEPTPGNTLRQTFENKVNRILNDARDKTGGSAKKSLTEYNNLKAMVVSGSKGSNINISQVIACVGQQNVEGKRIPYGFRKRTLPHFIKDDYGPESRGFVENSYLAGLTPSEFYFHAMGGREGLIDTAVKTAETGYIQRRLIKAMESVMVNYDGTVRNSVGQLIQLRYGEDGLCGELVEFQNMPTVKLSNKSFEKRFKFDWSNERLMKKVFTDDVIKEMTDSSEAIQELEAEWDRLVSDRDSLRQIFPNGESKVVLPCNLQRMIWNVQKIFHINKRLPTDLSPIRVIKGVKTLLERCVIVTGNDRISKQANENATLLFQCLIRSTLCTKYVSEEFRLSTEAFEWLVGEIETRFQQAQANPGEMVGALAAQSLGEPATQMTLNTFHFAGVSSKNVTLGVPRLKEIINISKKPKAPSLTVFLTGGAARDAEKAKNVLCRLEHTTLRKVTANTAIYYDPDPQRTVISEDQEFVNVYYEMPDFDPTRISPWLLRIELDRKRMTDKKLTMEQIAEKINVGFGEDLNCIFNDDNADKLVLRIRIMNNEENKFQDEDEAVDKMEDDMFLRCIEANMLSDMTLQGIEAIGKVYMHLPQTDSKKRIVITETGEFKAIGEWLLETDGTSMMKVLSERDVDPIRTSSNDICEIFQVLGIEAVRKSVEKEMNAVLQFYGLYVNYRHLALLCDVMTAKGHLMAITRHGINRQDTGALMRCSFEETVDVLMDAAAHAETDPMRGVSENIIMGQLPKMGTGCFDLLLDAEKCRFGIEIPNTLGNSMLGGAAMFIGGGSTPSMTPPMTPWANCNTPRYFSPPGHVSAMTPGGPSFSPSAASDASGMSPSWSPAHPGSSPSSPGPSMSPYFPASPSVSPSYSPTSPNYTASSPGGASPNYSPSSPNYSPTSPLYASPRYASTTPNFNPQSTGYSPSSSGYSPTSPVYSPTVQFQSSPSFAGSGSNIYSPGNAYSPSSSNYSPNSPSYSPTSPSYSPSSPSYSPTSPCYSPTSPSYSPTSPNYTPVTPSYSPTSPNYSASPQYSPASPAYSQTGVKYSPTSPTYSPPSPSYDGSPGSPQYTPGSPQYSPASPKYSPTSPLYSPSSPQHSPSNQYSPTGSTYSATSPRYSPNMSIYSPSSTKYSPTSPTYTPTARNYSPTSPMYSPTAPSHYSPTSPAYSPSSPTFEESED
UniProt A1ZAW0: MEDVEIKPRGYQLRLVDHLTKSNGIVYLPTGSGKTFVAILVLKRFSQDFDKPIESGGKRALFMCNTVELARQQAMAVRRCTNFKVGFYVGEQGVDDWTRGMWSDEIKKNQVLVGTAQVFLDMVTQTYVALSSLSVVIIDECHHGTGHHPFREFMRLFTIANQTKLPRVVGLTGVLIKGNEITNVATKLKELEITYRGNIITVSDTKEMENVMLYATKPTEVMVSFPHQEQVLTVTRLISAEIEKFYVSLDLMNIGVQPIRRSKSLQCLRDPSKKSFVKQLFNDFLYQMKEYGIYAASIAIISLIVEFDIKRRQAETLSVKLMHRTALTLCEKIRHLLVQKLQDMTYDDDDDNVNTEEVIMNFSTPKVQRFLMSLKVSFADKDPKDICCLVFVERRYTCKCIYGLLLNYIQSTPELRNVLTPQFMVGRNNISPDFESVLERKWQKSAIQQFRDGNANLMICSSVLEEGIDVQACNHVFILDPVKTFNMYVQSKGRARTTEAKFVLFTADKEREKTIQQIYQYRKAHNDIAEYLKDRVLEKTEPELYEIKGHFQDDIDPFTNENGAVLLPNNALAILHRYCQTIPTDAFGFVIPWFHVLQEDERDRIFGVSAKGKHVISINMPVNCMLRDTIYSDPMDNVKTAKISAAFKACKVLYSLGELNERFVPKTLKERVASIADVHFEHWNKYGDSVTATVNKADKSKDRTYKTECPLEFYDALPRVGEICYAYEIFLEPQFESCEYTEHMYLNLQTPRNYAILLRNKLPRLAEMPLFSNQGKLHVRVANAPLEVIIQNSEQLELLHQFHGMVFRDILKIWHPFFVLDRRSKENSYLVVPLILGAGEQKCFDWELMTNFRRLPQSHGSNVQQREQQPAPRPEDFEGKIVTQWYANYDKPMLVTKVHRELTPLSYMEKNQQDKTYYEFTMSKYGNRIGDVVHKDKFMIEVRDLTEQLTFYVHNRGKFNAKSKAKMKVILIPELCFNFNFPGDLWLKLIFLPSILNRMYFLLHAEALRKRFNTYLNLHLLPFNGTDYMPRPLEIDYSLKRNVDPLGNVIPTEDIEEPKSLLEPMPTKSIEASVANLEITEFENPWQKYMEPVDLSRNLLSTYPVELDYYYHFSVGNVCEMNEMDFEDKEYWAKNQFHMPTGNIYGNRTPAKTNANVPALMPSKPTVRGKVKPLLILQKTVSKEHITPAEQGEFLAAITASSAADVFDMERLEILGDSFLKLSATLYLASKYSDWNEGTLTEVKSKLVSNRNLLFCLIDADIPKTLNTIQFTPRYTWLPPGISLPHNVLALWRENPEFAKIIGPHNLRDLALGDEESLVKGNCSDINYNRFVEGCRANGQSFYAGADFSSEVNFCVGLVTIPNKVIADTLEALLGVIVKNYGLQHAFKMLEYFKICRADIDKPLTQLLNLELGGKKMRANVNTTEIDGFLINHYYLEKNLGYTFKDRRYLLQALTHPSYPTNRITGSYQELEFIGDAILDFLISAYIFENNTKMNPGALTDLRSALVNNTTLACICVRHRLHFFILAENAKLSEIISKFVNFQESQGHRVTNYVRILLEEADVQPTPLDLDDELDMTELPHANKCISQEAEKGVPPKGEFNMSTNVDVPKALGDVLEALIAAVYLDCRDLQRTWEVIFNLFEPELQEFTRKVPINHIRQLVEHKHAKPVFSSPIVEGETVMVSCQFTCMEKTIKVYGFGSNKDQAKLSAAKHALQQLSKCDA

Data on 1 substance can be found in PMC2785806.

These are yes or no findings as the source states them, for the method shown. In cells and extracts the contact can be indirect. Some entries that bind do so weakly or less than the wild type.

For the substance “Dicer-2 (from UniProt A1ZAW0 1-1722) (enzyme)”, the binding result was “binds”.
